3 substances from patent publication US8685976B2, “Cell adhesion promoting agent and method of promoting cell adhesion” (Kyoto University, priority 2008, dated 2014) can be followed below.

The series is described as follows: Isothermal titration calorimetry (ITC). The format is binding. The following applies: 100 mM NaCl, 25° C.; for n (no. of adhesamine per GAGs): 50 mM phosphate buffer (pH 6.0), 1% DMSO.

On to Heparan sulfate, for which the “n (no. of adhesamine per GAGs)” value worked out at 6.38 ± 0.49.

On to Heparin, for which the “n (no. of adhesamine per GAGs)” value stood at 20.34 ± 2.53. The “n (no. of adhesamine per oligosaccharides)” value (50 mM phosphate buffer, 1% (v/v) DMSO) worked out at 20.34 ± 2.53.

Keratan sulfate: the “n (no. of adhesamine per GAGs)” value is 33.28 ± 3.2.
